Reference: patent US20230158151A1 (NURIX THERAPEUTICS, INC., priority 2021, published 2023)
For some of these results: For at least one compound, name, drawing or mass did not settle the structure. Some entries share one result that the patent states for a list of compounds.

Key:
ITK [1] = target: T1, ITK (Homo sapiens, UniProt Q08881); assay: ITK Degradation HiBiT Assay; format: cell-based; conditions: ITK degradation in HiBiT cell line, FIG. 1
T1 construct: Compounds provided herein were assayed in vitro with ITK HiBit cell lines; endogenous in cells; host or cells: Molt4 (ATCC CRL-1552 [sic]), monoclonal clone 1C10
T1 sequence (Q08881 1-620): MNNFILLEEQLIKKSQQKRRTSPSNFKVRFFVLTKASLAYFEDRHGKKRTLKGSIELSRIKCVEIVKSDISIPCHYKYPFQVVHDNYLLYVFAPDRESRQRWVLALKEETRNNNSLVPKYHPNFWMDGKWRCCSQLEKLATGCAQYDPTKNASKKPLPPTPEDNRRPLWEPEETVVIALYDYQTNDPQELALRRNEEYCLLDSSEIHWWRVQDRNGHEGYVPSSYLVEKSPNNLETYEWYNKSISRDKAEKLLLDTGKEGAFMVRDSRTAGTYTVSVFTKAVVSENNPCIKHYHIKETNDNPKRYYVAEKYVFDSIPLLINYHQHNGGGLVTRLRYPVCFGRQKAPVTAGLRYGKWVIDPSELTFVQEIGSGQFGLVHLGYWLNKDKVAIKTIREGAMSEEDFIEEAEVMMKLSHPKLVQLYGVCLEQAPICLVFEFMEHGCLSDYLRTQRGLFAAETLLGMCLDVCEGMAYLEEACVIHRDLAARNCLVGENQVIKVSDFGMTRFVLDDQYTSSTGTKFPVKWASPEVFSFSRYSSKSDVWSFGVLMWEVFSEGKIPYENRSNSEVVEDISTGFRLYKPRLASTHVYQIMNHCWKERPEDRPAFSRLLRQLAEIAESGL
Description: Compounds provided herein were assayed in vitro with ITK HiBit cell lines. Compound dilution series (11-point, 5 fold dilutions in DMSO, columns 2-12 with replicate in rows A/B, C/D, E/F, G, H at 2000× the final required concentrations were prepared in 96 well plate (Falcon, cat. no. 353077). Column 1, rows A-H were control DMSO. The 2000× solutions ranged from 2 mM to 1.024 nM (final assay concentration range 1 μM to […]). The 2000× solutions were added to cells in […], for a final DMSO concentration of 0.5% and final assay compound concentration of 1×. For the cells, C-terminal HiBiT-tagged Molt4 cells (ATCC CRL-1552, monoclonal cell line clone 1C10) were plated at 1×10^6 cells/mL, 100 μL/well ([…]) in complete RPMI (10% FBS, 1% L-glutamine). […]
Following incubation, 100 μL of complete Nano-Glo HiBiT Lytic Detection Reagent (Nano-Glo HiBiT Lytic Buffer with 1:50 Nano-Glo HiBiT Lytic Substrate and 1:100 LgBiT Protein; Promega cat. no. N3O40) was added. […] Luminescence units (LU) were read on an EnVision plate reader (Perkin Elmer, 0.1 sec per well). Percent ITK remaining per sample was calculated as follows: […]
Using Graphpad Prism, % ITK remaining values were plotted as a function of compound concentration. […] ITK was measured with antibody-based MSD (Meso-Scale Discovery) assays shown below.

ITK [2] = target: T2, ITK (Mus musculus, UniProt Q03526); assay: Western Assay for ITK Degradation in Mouse Splenocytes after oral administration; format: in vivo; conditions: for ITK degradation in vivo by Western blotting: mouse splenocytes, oral
T2 construct: administered to mice orally; from tissue; host or cells: mouse splenocytes (spleen) after oral dosing
T2 sequence (Q03526 1-625): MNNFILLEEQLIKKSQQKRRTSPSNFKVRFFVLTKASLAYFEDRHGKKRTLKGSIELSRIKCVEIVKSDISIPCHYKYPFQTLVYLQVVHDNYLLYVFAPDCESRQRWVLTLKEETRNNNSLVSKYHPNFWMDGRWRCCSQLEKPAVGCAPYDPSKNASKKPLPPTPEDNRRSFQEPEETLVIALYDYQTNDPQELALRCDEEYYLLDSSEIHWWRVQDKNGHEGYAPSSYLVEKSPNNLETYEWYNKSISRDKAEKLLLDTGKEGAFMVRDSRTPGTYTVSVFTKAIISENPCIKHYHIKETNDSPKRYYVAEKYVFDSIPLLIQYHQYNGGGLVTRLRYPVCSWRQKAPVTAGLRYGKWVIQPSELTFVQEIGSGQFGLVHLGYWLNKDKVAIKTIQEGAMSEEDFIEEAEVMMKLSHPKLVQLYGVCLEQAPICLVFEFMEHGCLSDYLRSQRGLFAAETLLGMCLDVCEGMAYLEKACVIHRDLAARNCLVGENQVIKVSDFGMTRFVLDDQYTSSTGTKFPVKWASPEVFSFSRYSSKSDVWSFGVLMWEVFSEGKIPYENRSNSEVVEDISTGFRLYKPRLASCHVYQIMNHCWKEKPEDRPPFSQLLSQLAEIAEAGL
Description: Compounds 30 and 31 were administered to mice orally. After 6 hours, splenocytes cells were harvested. ITK was evaluated by Western blotting. Media was removed and cell pellets were lysed in 100 μL lysis buffer (RIPA buffer (Fisher, PI89901), cOmplete Mini EDTA-free protease inhibitor (Sigma 11836170001), Protease Inhibitor Cocktail (Sigma, P2714), Phosphatase Inhibitor Cocktail 2 and 3 (Sigma, P5726 and P0044), Benzonase (Sigma, E1014)). Cells were lysed overnight at −20° C. Following thaw, cells were centrifuged for 10 min at 13000 rpm, then transferred to new tube. Protein levels were determined by BCA Assay performed according to manufacturer's protocol (EMD Millipore, cat. no. 71285-3). Samples were combined with (4×) LDS Sample Buffer and (10×) Reducing Agent and H2O to equally load 20 μg protein per lane of a 26-well NuPAGE 4-12% Bis-Tris protein gel (1.0 mm, Thermo cat. no. NP0326). Samples were separated by running gels at constant 150 V in NuPAGE MES SDS Running Buffer. Following electrophoresis, proteins were transferred to nitrocellulose membranes using an iBlot Gel Transfer Device and iBlot Gel Transfer Stacks (Thermo cat. no. IB21001 and IB301001) and transfer method P3 (20V for 7 min). Membranes were blocked for 1 hr in 5% milk solution (TBS (0.2% Tween-20)). Following blocking, membranes were incubated with primary antibody (1:1000 CST ITK (2F12) #2380) overnight at 4° C. with gentle shaking. Blots were washed 2× in TBS (0.2% Tween-20), 30 min per wash. […] The data was analyzed using Alpha View software. The densitometric reading for each sample band was normalized to that of the corresponding actin band per lane. Approximate % ITK remaining per sample was calculated as follows: […]
Once % ITK remaining has been calculated for each sample, groups are averaged together to show an means % ITK normalized to actin and relative to control.
Compounds 30 and 29 were administered to mice orally. […] ITK was evaluated by Western blotting. Plasma concentrations were determined by LC/MS/MS. […]

Structure (SMILES) | DC50 (ITK [1]) | ITK (%) 90 mpk PO, 6 h (ITK [2]; % ITK remaining in mouse splenocytes, 90 mpk PO, 6 h) | ITK degradation in vivo by Western blotting (ITK [2]; 6 hours) | ITK degradation in vivo by Western blotting (ITK [2]; 24 hours)
C[C@@H](C(=O)N(C)c1ccc2cc(-c3n[nH]c4c3CCC(C)(C)C4)[nH]c2c1)N1CCN(CC2CCN(c3ccc(C4CCC(=O)NC4=O)cn3)CC2)CC1 (stereo partly drawn) [Compound 32, (2S)—N-(2-(6,6-dimethyl-4,5,6,7-tetrahydro-1H-indazol-3-yl)-1H-indol-6-yl)-2-(4-((1-(5-(2,6-dioxopiperidin-3-yl)pyridin-2-yl)piperidin-4-yl)methyl)piperazin-1-yl)-N-methylpropanamide] | < 10 nM | – | – | –
C[C@@H](C(=O)N(C)c1ccc2cc(-c3n[nH]c4c3C[C@@H]3C(F)(F)[C@]3(C)C4)[nH]c2c1)N1CCN(CC2CCN(c3ccc(C4CCC(=O)NC4=O)cn3)CC2)CC1 (stereo partly drawn) [Compound 30, (2S)—N-(2-((4aS,5aR)-5,5-difluoro-5a-methyl-1,4,4a,5,5a,6-hexahydrocyclopropa[f]indazol-3-yl)-1H-indol-6-yl)-2-(4-((1-(5-(2,6-dioxopiperidin-3-yl)pyridin-2-yl)piperidin-4-yl)methyl)piperazin-1-yl)-N-methylpropanamide] | – | 20% | degraded ITK in vivo | degraded ITK in vivo
